{"source": "paper PMC9424819", "about": "“Evaluation of commonly used cardiovascular drugs in inhibiting vonoprazan metabolism in vitro and in vivo” (Frontiers in Pharmacology, 2022)", "experiment": "Pharmacokinetics of vonoprazan and MI in rats with or without inhibitor pretreatment", "conditions": "rats pretreated with 10 mg/kg inhibitor, then 2 mg/kg vonoprazan by gavage", "data": [{"smiles": "COC(=O)C1=C(C)NC(C)=C(C(=O)OC)C1c1ccccc1[N+](=O)[O-]", "note": "[Nifedipine, nifedipine]", "values": [{"measurement": "inhibitory effect on vonoprazan metabolism in vivo", "result": "not observed"}]}]}
